# The other results are listed elsewhere or left out. Further columns of the screen follow, without active or inactive calls. Compounds called inactive in the main read-out are mostly missing here. The note in brackets gives the kind of curve behind each potency; many fits are weak.
# Experiment: qHTS Assay for Lipid Storage Modulators in Drosophila S3 Cells;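 for cell number change: cells counted by Cell Tracker Red CMTPX staining in the red channel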
# Conditions: BODIPY lipid droplet fluorescence, 18-24 h; for cell number change: measured here: cell count max response, cells fed with added oleic acid
# Summary of the method: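 Drosophila S3 cells loaded with oleic acid (400 uM, as added) and compounds at several concentrations; lipid droplets imaged by 488-nm laser-scanning cytometry, 500–530 nm intensity and object ratio to cell channel. Percent activity normalized to 20 uM Triacsin C.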
# [1] = measured here: lipid fluorescence (Fed channel) AC50, cells fed with added oleic acid
# [2] = measured here: cell number channel AC50, cells fed with added oleic acid
smiles,measurement,setting,value
NS(=O)(=O)c1ccc(CNC(=O)C2(c3ccc(Cl)cc3)CC2)cc1,AC50,[1],"20.6 µM [rising, single point]"
CSc1ncc(C(=O)Nc2ccc(Cl)cc2)c(C)n1,cell number change,,81%
O=C(CCCn1c(=S)[nH]c2ccsc2c1=O)NCCc1ccccc1,cell number change,,-45.8%
same,AC50,[2],"29.1 µM [falling, single point]"
COc1ccccc1-c1nnc(SCC(=O)NCc2ccco2)n1N,cell number change,,-29.6%
same,AC50,[2],"0.731 µM [rising, single point]"
N#CC1=C(N)Oc2n[nH]c(-c3ccncc3)c2C1c1ccsc1 (stereo not drawn),AC50,[2],"0.461 µM [rising, single point]"
COc1ccc(OCc2nnc(SCC(=O)O)n2N)cc1,cell number change,,35.8%
same,AC50,[2],"29.1 µM [rising, single point]"
same,AC50,[1],"20.6 µM [rising, single point]"
CC(C)Sc1nc2ccc(N3C(=O)C4CCCCC4C3=O)cc2s1 (stereo not drawn),cell number change,,-10.1%
same,AC50,[1],"5.8 µM [falling, full curve]"
COCCn1c(SCC(=O)Nc2ccc(Cl)c(S(=O)(=O)N(C)C)c2)nc2ccccc21,cell number change,,10.5%
COc1ccc(C(=O)COC(=O)c2cnc(C)cn2)c(OC)c1,cell number change,,-1.92%
same,AC50,[1],"20.6 µM [rising, partial curve]"
CC(C)(C#CCN1CCCC1)OCCC#N,cell number change,,-11.3%
same,AC50,[1],"2.06 µM [falling, full curve, poor fit]"
O=C(CCNS(=O)(=O)c1ccccc1)NCCCSc1ccccc1,AC50,[1],"0.259 µM [rising, full curve, poor fit]"
CCc1nnc2c(N(C)C)nc3ccccc3n12,cell number change,,-8.32%
same,AC50,[1],"6.51 µM [rising, partial curve]"
CCC(=O)NCCc1nc2cc(NC(=O)COc3ccccc3)ccc2n1C,cell number change,,30.7%
same,AC50,[2],"14.6 µM [rising, partial curve, poor fit]"
same,AC50,[1],"0.13 µM [rising, full curve, poor fit]"
COc1ccc(CN2CCSCC2)cc1C,AC50,[1],"20.6 µM [falling, partial curve]"
C(=N\Nc1nc(Nc2ccccc2)nc(Nc2ccccc2)n1)/c1cccnc1,cell number change,,-4.67%
same,AC50,[2],"1.46 µM [rising, partial curve, poor fit]"
same,AC50,[1],"0.731 µM [rising, full curve]"
COC(=O)Sc1nc(N2CCOCC2)c2c(c1C#N)CC(C)(C)OC2,cell number change,,1.54%
same,AC50,[1],"14.6 µM [rising, partial curve, poor fit]"
CCCCOc1ccc(C(=O)Nc2ccc(OCC(=O)N3CCOCC3)cc2)cc1,cell number change,,-3.47%
same,AC50,[1],"6.51 µM [rising, single point]"
Cc1ccc(/C=N/Nc2nc(N3CCOCC3)nc(N3CCOCC3)n2)o1,cell number change,,6.61%
same,AC50,[1],"6.51 µM [falling, single point]"
Cc1ccc(S(=O)(=O)N(c2cccc(C(F)(F)F)c2)C2C=CS(=O)(=O)C2)cc1 (stereo not drawn),cell number change,,-41.5%
same,AC50,[2],"0.411 µM [falling, full curve, poor fit]"
same,AC50,[1],"0.326 µM [falling, full curve, poor fit]"
Cc1cc(C)cc(N2C(=O)CC(Sc3nnnn3-c3ccccc3)C2=O)c1 (stereo not drawn),cell number change,,-87.1%
same,AC50,[2],"29.1 µM [falling, single point]"
same,AC50,[1],"29.1 µM [falling, single point]"
C=CCN=C1SCC(=O)N1S(=O)(=O)c1ccccc1,cell number change,,30.5%
same,AC50,[2],"11.6 µM [rising, single point]"
same,AC50,[1],"18.4 µM [rising, single point]"
CCOc1ccc(N2C(=O)CC(N3CCN(C(=O)CN4CCCC4)CC3)C2=O)cc1 (stereo not drawn),cell number change,,0.14%
O=C(O)CCC(=O)N1N=C(c2c(-c3ccccc3)c3cc(Cl)ccc3[nH]c2=O)CC1c1cccs1 (stereo not drawn),cell number change,,-13.6%
same,AC50,[1],"6.51 µM [rising, partial curve, poor fit]"
CCc1ccc(C(C(=O)NCc2ccc(OC)cc2)N(CCOC)C(=O)Cc2cccs2)cc1 (stereo not drawn),cell number change,,14.5%
same,AC50,[1],"0.411 µM [rising, full curve, poor fit]"
Cc1cccc(C)c1NC(=O)CN(C)C(=O)COc1cccc2c1OC(C)(C)C2,cell number change,,34.5%
same,AC50,[2],"5.17 µM [rising, full curve, poor fit]"
CCOc1ccc(NC(=O)CSc2nccn(-c3ccc4c(c3)OCCO4)c2=O)cc1,cell number change,,50%
same,AC50,[2],"25.9 µM [rising, single point]"
CCc1c(C)nc(SCC(=O)N2CCc3ccccc32)[nH]c1=O,cell number change,,-7.21%
same,AC50,[1],"29.1 µM [falling, single point]"
S=C1SCN(CCN2CCOCC2)CN1Cc1ccccc1,cell number change,,-6.56%
same,AC50,[1],"20.6 µM [falling, partial curve]"
O=C(CC(c1ccccc1)c1ccccc1)NCC1CCCO1 (stereo not drawn),cell number change,,-18.4%
Cc1ccc(NC(=O)c2cccc(OCc3c(C)noc3C)c2)cc1S(=O)(=O)Nc1ccccc1Cl,cell number change,,-3.83%
same,AC50,[1],"29.1 µM [rising, single point]"
S=C(NCc1ccncc1)Nc1cccc(Cl)c1,cell number change,,13.1%
same,AC50,[1],"29.1 µM [rising, single point]"
C=C(C)CSc1nnc2n(N)c(=O)c3ccccc3n12,cell number change,,78.9%
same,AC50,[2],"7.31 µM [rising, partial curve]"
same,AC50,[1],"11.6 µM [rising, partial curve]"
CC1(C)CC(=O)C2=C(C1)N(Cc1ccco1)C(=O)C2(NC(=O)C1CCCCC1)C(F)(F)F (stereo not drawn),AC50,[1],"0.58 µM [rising, full curve]"
O=C(CN1CCCCC1)Nc1cccc(Oc2ccccc2)c1,cell number change,,-96.2%
same,AC50,[2],"14.6 µM [falling, partial curve]"
same,AC50,[1],"29.1 µM [falling, partial curve]"
COc1cc(/C=C/C(=O)O)cc(S(=O)(=O)Nc2ccc3nc(SC)sc3c2)c1OC,cell number change,,-27.9%
same,AC50,[2],"3.26 µM [falling, full curve, poor fit]"
Cc1nc(SCc2nnc(-c3ccc(Cl)cc3)o2)c2c3c(sc2n1)CCC3,cell number change,,2.61%
same,AC50,[1],"0.116 µM [rising, full curve, poor fit]"
CCN=C(Nc1cccc(F)c1)SC1CC(=O)N(c2ccc(OC)cc2)C1=O (stereo not drawn),cell number change,,-4.02%
same,AC50,[1],"0.0326 µM [falling, full curve, poor fit]"

# 6 entries drawn at random from those above:
smiles,measurement,setting,value
COCCn1c(SCC(=O)Nc2ccc(Cl)c(S(=O)(=O)N(C)C)c2)nc2ccccc21,cell number change,,10.5%
O=C(O)CCC(=O)N1N=C(c2c(-c3ccccc3)c3cc(Cl)ccc3[nH]c2=O)CC1c1cccs1 (stereo not drawn),cell number change,,-13.6%
Cc1ccc(/C=N/Nc2nc(N3CCOCC3)nc(N3CCOCC3)n2)o1,AC50,[1],"6.51 µM [falling, single point]"
CSc1ncc(C(=O)Nc2ccc(Cl)cc2)c(C)n1,cell number change,,81%
CCN=C(Nc1cccc(F)c1)SC1CC(=O)N(c2ccc(OC)cc2)C1=O (stereo not drawn),AC50,[1],"0.0326 µM [falling, full curve, poor fit]"
NS(=O)(=O)c1ccc(CNC(=O)C2(c3ccc(Cl)cc3)CC2)cc1,AC50,[1],"20.6 µM [rising, single point]"

# — PubChem BioAssay AID2685 (National Center for Advancing Translational Sciences (NCATS), 2010)
